Laboratory results taken from the supplement of paper PMC8426693.
The list shows a part of the results.

What was measured:
Assay in all cases: NMR binding call after quantification (hit when 2 of 3 NMR criteria are met) (binary (1 = binding, 0 = not binding)); higher = binding
Details in all cases: RNA concentration 10 µM; fragment concentration 200 µM; 293 K
SARS-CoV-2 5'-UTR RNA = test system: SARS-CoV-2 5'-UTR RNA
SARS-CoV-2 5_SL1 RNA = test system: SARS-CoV-2 5_SL1 RNA
SARS-CoV-2 5_SL1234 RNA = test system: SARS-CoV-2 5_SL1234 RNA
SARS-CoV-2 5_SL2+3 RNA = test system: SARS-CoV-2 5_SL2+3 RNA
SARS-CoV-2 5_SL4 RNA = test system: SARS-CoV-2 5_SL4 RNA
SARS-CoV-2 5_SL5 RNA = test system: SARS-CoV-2 5_SL5 RNA
SARS-CoV-2 5_SL5a RNA = test system: SARS-CoV-2 5_SL5a RNA
SARS-CoV-2 5_SL5b+c RNA = test system: SARS-CoV-2 5_SL5b+c RNA
SARS-CoV-2 5_SL5stem RNA = test system: SARS-CoV-2 5_SL5stem RNA
SARS-CoV-2 5_SL6 RNA = test system: SARS-CoV-2 5_SL6 RNA

SMILES	NMR binding call (SARS-CoV-2 5'-UTR RNA)	NMR binding call (SARS-CoV-2 5_SL1 RNA)	NMR binding call (SARS-CoV-2 5_SL1234 RNA)	NMR binding call (SARS-CoV-2 5_SL2+3 RNA)	NMR binding call (SARS-CoV-2 5_SL4 RNA)	NMR binding call (SARS-CoV-2 5_SL5 RNA)	NMR binding call (SARS-CoV-2 5_SL5a RNA)	NMR binding call (SARS-CoV-2 5_SL5b+c RNA)	NMR binding call (SARS-CoV-2 5_SL5stem RNA)	NMR binding call (SARS-CoV-2 5_SL6 RNA)
CC(=O)Nc1cccnc1C(=O)O	0	0	0	0	0	0	0	0	0	0
c1nc(CN2CCNCC2)cs1	0	0	0	0	0	0	0	0	0	0
COc1ccc2sc(N)nc2c1	1	0	0	0	0	1	0	0	0	–
CC(=O)NC(C)(C(=O)O)C1CC1 (configuration not stated)	0	0	0	0	0	0	0	0	0	0
NC(=O)c1cnn(CCO)c1	0	0	0	0	0	0	0	0	0	0
NC(=O)c1ccc(NC(=O)C2CCCO2)cc1 (configuration not stated)	0	0	0	0	0	0	0	0	0	0
NC(=O)c1cc(N2CCCC2)ccn1	1	0	0	0	1	1	0	0	0	–
CCc1ccc(NC(=O)c2cnccn2)cc1	0	0	0	0	0	0	0	0	0	0
CC(N)c1ccc(N2CCOCC2)cc1 (configuration not stated)	0	0	0	0	0	0	0	0	0	0
Cc1nc(C)n(CCC(=O)O)n1	0	0	0	0	0	0	0	0	0	0
Cn1nnc(NC(=O)c2ccc(F)cc2)n1	0	0	0	0	0	0	0	0	0	0
CC(C)C(=O)Nc1cccc(C#N)c1	0	0	0	0	0	0	0	0	0	–
CNC(=O)CN1CCNCC1	0	0	0	0	0	0	0	0	0	0
CN(CC(=O)O)C(=O)c1ccc(F)cc1	0	0	0	0	0	0	0	0	0	0
NC(=O)c1ccccc1NC(=O)c1ccncc1	0	0	0	0	0	0	0	0	0	–
CN(c1ccc(C(N)=O)nn1)C1CCC1	0	0	0	0	0	0	0	0	0	0
O=C(NCCC1=CCCCC1)c1cnccn1	0	0	0	0	0	0	0	0	0	0
Cc1[nH][nH]c(=O)c1CCO	0	0	0	0	0	0	0	0	0	0
COC(=O)c1ccc(NC(=O)C2CCCC2)cc1	0	0	0	0	0	0	0	0	0	–
COc1ccc(C)cc1NC(=O)Nn1cnnc1	0	0	0	0	0	0	0	0	0	0
Nc1ccccc1OCc1ccccc1	0	0	0	0	0	0	0	0	0	–
CNCC(=O)Nc1cc(C)ccn1	1	0	0	0	0	0	0	0	0	–
CC(O)C(=O)NCc1ccccn1 (configuration not stated)	0	0	0	0	0	0	0	0	0	–
Cl.Cn1cc(C(N)=O)c(C2CCCNC2)n1 (configuration not stated)	0	0	0	0	0	0	0	0	0	0

A stretch from the list above, as a working copy:
SMILES	NMR binding call (SARS-CoV-2 5'-UTR RNA)	NMR binding call (SARS-CoV-2 5_SL1 RNA)	NMR binding call (SARS-CoV-2 5_SL1234 RNA)	NMR binding call (SARS-CoV-2 5_SL2+3 RNA)	NMR binding call (SARS-CoV-2 5_SL4 RNA)	NMR binding call (SARS-CoV-2 5_SL5 RNA)	NMR binding call (SARS-CoV-2 5_SL5a RNA)	NMR binding call (SARS-CoV-2 5_SL5b+c RNA)	NMR binding call (SARS-CoV-2 5_SL5stem RNA)	NMR binding call (SARS-CoV-2 5_SL6 RNA)
CN(c1ccc(C(N)=O)nn1)C1CCC1	0	0	0	0	0	0	0	0	0	0
O=C(NCCC1=CCCCC1)c1cnccn1	0	0	0	0	0	0	0	0	0	0
